The values below come from paper PMC12635394, “UBE2O-mediated ubiquitylation directs cytoplasmic CTNNA1 to promote cell-to-ECM adhesions” (EMBO Reports, 2025).

Sequences of proteins named here, by UniProt entry; tags and fusion partners are left off.
UniProt P35222: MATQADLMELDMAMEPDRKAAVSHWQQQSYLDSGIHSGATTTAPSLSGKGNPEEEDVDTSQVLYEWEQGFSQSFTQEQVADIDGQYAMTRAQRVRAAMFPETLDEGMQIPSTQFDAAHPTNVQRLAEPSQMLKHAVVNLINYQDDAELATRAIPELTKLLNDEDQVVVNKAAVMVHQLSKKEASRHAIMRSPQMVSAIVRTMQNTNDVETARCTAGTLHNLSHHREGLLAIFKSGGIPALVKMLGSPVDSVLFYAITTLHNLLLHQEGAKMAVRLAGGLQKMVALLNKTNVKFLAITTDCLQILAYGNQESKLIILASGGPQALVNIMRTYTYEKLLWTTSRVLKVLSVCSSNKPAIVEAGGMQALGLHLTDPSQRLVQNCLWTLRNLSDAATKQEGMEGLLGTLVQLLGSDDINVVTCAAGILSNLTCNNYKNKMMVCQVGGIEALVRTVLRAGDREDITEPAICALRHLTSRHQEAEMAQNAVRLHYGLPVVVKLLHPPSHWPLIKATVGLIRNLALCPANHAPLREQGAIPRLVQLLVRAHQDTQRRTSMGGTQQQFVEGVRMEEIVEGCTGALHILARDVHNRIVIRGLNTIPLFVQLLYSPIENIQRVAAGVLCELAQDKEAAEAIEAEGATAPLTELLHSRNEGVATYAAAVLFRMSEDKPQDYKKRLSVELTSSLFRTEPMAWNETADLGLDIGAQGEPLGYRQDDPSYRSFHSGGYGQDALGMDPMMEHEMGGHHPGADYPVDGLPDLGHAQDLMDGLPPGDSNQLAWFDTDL

Assay [1] has as its target Myc-CTNNA1 (full-length mouse Ctnna1, expressed in cells) (mouse) (UniProt P26231). Put plainly: co-IP; UBE2O and CTNNA1 expressed in HEK293T with or without co-expressed β-catenin, immunoblot. Background: A western blot detects proteins with antibodies after separation by electrophoresis.
Assay [2] has as its target CTNNA1-V5 (purified mouse CTNNA1 with C-terminal V5 tag) (mouse) (UniProt P26231). Put plainly: pull-down; 0.1 μM CTNNA1-V5 pre-incubated overnight at 4 °C with 0, 25 or 50 nM His-GST-β-catenin, captured on BSA-blocked V5-Trap beads, washed, then 0.1 μM Flag-UBE2O-TS for 1.5 h at 4 °C, immunoblot; both purified.
In assay [3] the target is T1, endogenous human UBE2O (human (endogenous in HEK293T and HaCaT)) (UniProt Q9C0C9).
T1 sequence: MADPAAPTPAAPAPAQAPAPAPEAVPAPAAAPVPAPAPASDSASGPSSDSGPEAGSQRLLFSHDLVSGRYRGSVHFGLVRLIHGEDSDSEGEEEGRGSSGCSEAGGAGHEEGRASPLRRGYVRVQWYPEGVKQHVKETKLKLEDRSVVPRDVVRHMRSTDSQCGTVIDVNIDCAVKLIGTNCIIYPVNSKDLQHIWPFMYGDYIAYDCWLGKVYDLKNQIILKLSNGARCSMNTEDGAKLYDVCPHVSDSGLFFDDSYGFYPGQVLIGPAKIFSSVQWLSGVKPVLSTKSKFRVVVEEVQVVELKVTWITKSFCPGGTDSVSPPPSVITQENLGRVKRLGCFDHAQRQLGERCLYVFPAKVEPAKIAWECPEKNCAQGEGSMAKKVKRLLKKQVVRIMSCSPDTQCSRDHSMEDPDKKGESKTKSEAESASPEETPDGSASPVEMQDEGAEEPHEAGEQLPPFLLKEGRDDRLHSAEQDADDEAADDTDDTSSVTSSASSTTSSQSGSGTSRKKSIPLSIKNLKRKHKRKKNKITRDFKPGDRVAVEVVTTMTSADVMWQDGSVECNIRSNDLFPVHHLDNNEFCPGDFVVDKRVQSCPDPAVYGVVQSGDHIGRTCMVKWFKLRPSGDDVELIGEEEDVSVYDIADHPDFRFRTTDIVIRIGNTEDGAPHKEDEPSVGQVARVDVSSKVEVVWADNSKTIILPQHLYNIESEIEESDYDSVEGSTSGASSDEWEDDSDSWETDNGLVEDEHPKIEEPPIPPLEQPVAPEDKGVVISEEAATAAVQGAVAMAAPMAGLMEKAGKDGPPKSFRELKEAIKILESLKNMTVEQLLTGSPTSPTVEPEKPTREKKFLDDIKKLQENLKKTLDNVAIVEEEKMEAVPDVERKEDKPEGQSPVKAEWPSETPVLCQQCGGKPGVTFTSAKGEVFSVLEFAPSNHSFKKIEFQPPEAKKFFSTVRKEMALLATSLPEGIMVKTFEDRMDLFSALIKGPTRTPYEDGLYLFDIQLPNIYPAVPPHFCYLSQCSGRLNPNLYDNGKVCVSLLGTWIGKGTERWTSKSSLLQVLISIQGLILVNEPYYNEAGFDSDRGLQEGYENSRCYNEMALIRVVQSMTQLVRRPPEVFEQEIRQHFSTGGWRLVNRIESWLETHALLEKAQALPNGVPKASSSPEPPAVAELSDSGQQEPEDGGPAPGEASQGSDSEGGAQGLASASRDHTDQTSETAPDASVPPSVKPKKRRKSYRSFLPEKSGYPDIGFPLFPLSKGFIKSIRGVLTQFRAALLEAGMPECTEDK
Put plainly: co-IP; endogenous proteins; MEF or HaCaT lysates incubated with rabbit anti-UBE2O or rabbit IgG overnight at 4 °C, Protein A/G magnetic beads, immunoblot.

Assay [4] deals with T2, endogenous UBE2O of mouse embryonic fibroblasts (mouse (endogenous in MEFs)) (UniProt Q6ZPJ3).
T2 sequence: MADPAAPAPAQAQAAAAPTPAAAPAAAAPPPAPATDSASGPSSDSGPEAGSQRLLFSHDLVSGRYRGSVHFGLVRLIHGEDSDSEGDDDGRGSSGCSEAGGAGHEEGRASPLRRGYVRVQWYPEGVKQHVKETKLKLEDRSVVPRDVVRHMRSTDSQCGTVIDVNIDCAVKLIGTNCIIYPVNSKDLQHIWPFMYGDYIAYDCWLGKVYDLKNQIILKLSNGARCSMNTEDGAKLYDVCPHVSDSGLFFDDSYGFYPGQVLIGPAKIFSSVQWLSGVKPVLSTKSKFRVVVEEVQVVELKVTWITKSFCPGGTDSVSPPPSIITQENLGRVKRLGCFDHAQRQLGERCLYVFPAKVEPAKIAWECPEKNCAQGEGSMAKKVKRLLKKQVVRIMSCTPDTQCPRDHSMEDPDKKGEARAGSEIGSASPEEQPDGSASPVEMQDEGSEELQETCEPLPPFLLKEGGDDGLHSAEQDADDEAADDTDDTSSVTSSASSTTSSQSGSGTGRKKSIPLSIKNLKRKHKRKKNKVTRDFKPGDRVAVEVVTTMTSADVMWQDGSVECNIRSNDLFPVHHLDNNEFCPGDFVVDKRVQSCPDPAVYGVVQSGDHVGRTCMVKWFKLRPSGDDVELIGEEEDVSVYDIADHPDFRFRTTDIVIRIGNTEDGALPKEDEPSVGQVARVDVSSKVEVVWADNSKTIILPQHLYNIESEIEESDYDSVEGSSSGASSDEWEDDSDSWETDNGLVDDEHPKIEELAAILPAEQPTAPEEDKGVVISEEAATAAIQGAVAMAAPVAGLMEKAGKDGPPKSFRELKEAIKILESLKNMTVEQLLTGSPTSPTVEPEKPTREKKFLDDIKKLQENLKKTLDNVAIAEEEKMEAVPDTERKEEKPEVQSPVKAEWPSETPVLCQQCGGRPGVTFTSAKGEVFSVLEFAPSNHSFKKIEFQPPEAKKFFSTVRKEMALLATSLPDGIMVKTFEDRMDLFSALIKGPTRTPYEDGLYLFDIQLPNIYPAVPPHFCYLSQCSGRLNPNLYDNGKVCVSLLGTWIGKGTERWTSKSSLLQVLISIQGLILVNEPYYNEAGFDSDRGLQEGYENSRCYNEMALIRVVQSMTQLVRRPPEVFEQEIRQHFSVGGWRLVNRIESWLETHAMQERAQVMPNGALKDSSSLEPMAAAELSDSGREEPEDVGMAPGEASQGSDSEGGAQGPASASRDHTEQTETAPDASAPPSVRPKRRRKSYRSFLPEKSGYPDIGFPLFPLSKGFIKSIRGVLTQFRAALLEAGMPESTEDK
The assay is described as above.

Assay [5] concerns the target T3, Flag-UBE2O (full length, expressed in cells) (human) (UniProt Q9C0C9).
T3 sequence: T1 sequence
Put plainly: co-IP; UBE2O and CTNNA1 expressed in HEK293T with or without co-expressed β-catenin, immunoblot.

Assay [6] addresses T3, Flag-UBE2O (full length, expressed in cells) (human). Description: co-IP; co-expression of tagged full-length or truncated proteins in transfected cells (36 h), anti-Flag M2 affinity gel 90 min at 4 °C, immunoblot.
Assay [7] deals with T4, CTNNA1-V5 (purified mouse CTNNA1 with C-terminal V5 tag) (mouse), P26231.
T4 chain: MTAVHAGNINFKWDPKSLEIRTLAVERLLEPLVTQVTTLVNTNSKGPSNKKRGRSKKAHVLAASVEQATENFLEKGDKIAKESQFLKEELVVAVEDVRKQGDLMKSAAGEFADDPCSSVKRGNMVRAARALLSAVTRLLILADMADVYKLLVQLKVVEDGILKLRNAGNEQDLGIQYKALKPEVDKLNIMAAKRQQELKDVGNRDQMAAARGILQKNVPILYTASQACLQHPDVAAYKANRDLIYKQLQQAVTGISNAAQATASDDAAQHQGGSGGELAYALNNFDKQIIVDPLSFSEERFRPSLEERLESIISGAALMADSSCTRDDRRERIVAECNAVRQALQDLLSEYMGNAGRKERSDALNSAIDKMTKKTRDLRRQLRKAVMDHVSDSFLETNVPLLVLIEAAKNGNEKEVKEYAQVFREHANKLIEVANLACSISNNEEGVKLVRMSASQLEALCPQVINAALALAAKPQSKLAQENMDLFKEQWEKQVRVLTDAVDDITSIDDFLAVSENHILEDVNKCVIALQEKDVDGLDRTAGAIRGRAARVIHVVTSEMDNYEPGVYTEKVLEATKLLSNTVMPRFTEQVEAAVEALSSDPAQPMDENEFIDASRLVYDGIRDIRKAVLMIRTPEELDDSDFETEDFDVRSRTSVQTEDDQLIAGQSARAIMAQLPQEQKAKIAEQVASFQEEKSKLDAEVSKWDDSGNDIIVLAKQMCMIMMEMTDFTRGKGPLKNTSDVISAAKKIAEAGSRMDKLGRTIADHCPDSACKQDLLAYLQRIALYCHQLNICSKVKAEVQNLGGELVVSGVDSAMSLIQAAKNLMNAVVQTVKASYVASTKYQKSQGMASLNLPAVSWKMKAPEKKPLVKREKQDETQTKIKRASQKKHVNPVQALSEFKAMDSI
Put plainly: pull-down; ctrl, CTNNA1-V5 (no ATP) or ubiquitylated CTNNA1-V5 baits on V5-Trap magnetic agarose, incubated overnight at 4 °C with lysate of HEK293T, MDCK, MEFs or HEK293T expressing Flag-CTNNA1 or Flag-CTNNA2, immunoblot; only the target purified. The following applies: remark: other sources report otherwise.

These are yes or no findings as the source states them, for the method shown. For some of these results: In cells and extracts the contact can be indirect. Some binding calls cover weakened binding; strength is not graded here. For some of these results: Sequences can lack the tags named with a protein.

As to “Flag-CTNNB1 (human β-catenin, expressed in cells) (from UniProt P35222 1-781)”, the binding result in assay [1] was “binds”.
Consider “His-GST-β-catenin protein (from UniProt P35222 1-781)”, for which, in assay [2], the binding entry was “binds”.
Turning to “endogenous CTNNA1 of HaCaT cells (from UniProt P35221 1-906)”, the binding entry in assay [3] was “binds”.
In the case of “endogenous CTNNA1 of mouse embryonic fibroblasts (from UniProt P26231 1-906)”, the binding result in assay [4] is recorded as “binds”.
On to “Myc-CTNNA1 (full-length mouse Ctnna1, expressed in cells) (from UniProt P26231 1-906)”, for which the binding entry in assay [5] and in assay [6] was “binds” in each case.

B1: Flag-tagged CTNNA1 (full-length mouse Ctnna1), P26231 1-906 (protein)
chain: T4 chain
With B1, the binding entry in assay [7] is “binds”.
